Patent US20110136229A1, “Novel lectin” (National Taiwan University, priority 2009, published 2011)
Some results were stated once for a whole list of compounds, not compound by compound.

Test system: CPL
Test: Hemagglutination inhibition assay on CPL by various sugars (MIC)
Type: cell-based, Carica papaya
Conditions: minimum inhibitory concentration for inhibition of 16 hemagglutination titers, 2% human erythrocytes
Method: The HA titer of the purified lectin in the present invention was 512. The purified lectin was diluted to have the HA titer as 16, and then mixed with various sugar solution to test hemagglutination inhibition on CPL by various sugars. The results were illustrated in Table 3, wherein MIC indicated minimum inhibitory concentrations required for inhibition of 16 hemagglutination titers of the lectin of the present invention against 2% human 0-type erythrocytes, and all sugars are of D configuration.

CC(=O)N[C@H]1C(O)O[C@H](CO)[C@@H](O)[C@@H]1O (some centres unmarked) [N-acetylglucosamine]
MIC: more than 100 mM

O=C[C@H](O)[C@@H](O)[C@@H](O)[C@H](O)CO [Galactose]
MIC (listed as galactose): more than 100 mM
